Patent US12246034B2, “Animal feed supplement and method” (CAN TECHNOLOGIES, INC., priority 2014, dated 2025)
Read-outs that look alike come from different tables or passages of the source.

Test system: sows
Conditions: sow
Experimental: A trial was conducted at the Sterksel Research farm in the Netherlands (part of Wageningen University Research). A total of 207 sows were used in the trial allocated based on parity over 6 treatments (n=34). […] Calcium levels were the same in all diets.
Until farrowing, sows received a fixed amount of feed (3.25 kg from day 107-113 and 2.7 kg/sow/day from day 113 till farrowing). During lactation the sows were fed the diets according to a step-up feeding schedule applied (increasing with 0.5 kg/sow/day) the same over the 6 treatments aiming at a peak intake of 7.5 kg/sow/day. Piglets were weaned from the sow at 27 days of age. Performance of sows (e.g. weight, backfat, piglets born alive, stillborn piglets, mortality of piglets) and piglets (e.g. weight at birth, after 48 hours and weaning) was measured on all sows and litters. A subset of sows (19-20 per treatment) was examined more in detail to get insight in the possible mode of action of nitrate. On this subset, blood samples were collected within 4 minutes after birth from 2 piglets out of every 4 piglets born. Blood gasses of umbilical cord blood were analyzed using the i-STAT handheld (Abbott). Vitality of piglets was scored within 30 seconds after birth according to Baxter et al. (2008) with 1 being the lowest and 4 being the highest score for vitality.

[1] = 0.03% nitrate in lactation diet
[2] = 0.06% nitrate in lactation diet
[3] = 0.09% nitrate in lactation diet
[4] = 0.12% nitrate in lactation diet
[5] = 0.15% nitrate in lactation diet

SMILES: O=[N+]([O-])O [Nitrate, nitrate]
- % backfat change [1]: −17.0%
- % weight change farrow - wean [1]: −5.4%
- Backfat at weaning [1]: 12.8 mm
- Body weight at weaning [1]: 228.5 kg
- body weight after farrowing [1]: 241.6 kg
- % backfat change [2]: −19.4%
- % weight change farrow - wean [2]: −5.0%
- Backfat at weaning [2]: 12.6 mm
- Body weight at weaning [2]: 228.1 kg
- body weight after farrowing [2]: 240.7 kg
- % backfat change [3]: −21.6%
- % weight change farrow - wean [3]: −5.9%
- Backfat at weaning [3]: 12.2 mm
- Body weight at weaning [3]: 226.6 kg
- body weight after farrowing [3]: 240.8 kg
- % backfat change [4]: −18.2%
- % weight change farrow - wean [4]: −6.3%
- Backfat at weaning [4]: 12.7 mm
- Body weight at weaning [4]: 224.8 kg
- body weight after farrowing [4]: 240.0 kg
- % backfat change [5]: −19.3%
- % weight change farrow - wean [5]: −4.8%
- Backfat at weaning [5]: 12.5 mm
- Body weight at weaning [5]: 227.5 kg
- body weight after farrowing [5]: 240.0 kg
- body weight at farrowing, net change (difference across the nitrate range) (across the nitrate range): 1.8 kg
